# Measured values as given in the supplement of paper PMC8728848.
# The other results are listed elsewhere or left out.
# B1: Epa2 (Candida glabrata) (protein)
# chain: MGSSHHHHHHSSGLVPRGSHMASSKDPTSFPMGCSPQVLKTQPGLAVKLYSYGHPVPGCAYNTYQYPDFPRSGYKKERKLADITGVNGRIDIDLKPNDPCRVLSGNLPSNYNYQNTLTYTNFTMILYGYFQPKVTGYHTFNLEADDLLFMNLGAGNAFDCCRAESTLDNFGNYQSYSIWGTDKATADLTVFLVSGIYYPIRLFYVNRDNNAVLDFSFSTEFNKEIIHDFTSYFFSASDEEQCPGNI
# What was measured:
# Assay in all cases: glycan array binding signal (z-score within array); higher = stronger binding
# Conditions in all cases: glycan notation: IUPAC condensed, linker removed
# [1] = target: Fuc(a1-2)[Gal(a1-3)]Gal(b1-4)GlcNAc(b1-2)Man(a1-3)[Fuc(a1-2)[Gal(a1-3)]Gal(b1-4)GlcNAc(b1-2)Man(a1-6)]Man(b1-4)GlcNAc(b1-4)GlcNAc
# Outline: (§1)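 The Consortium for Functional Glycomics database supplied 3228 glycan arrays, of which those lacking an available protein sequence were dropped. The binding signal, a within-array Z-score, was averaged across arrays of the same protein sequence and across linkers. Negative scores can be read as non-binding.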
# [2] = target: Fuc(a1-2)[Gal(a1-3)]Gal(b1-4)GlcNAc(b1-2)Man(a1-3)[Fuc(a1-2)[Gal(a1-3)]Gal(b1-4)GlcNAc(b1-2)Man(a1-6)]Man(b1-4)GlcNAc(b1-4)[Fuc(a1-6)]GlcNAc
# Outline: as §1
# [3] = target: Fuc(a1-2)[Gal(a1-3)]Gal(b1-4)GlcNAc(b1-3)GalNAc
# Outline: as §1
# [4] = target: Fuc(a1-2)[Gal(a1-3)]Gal(b1-4)GlcNAc(b1-3)[Fuc(a1-2)[Gal(a1-3)]Gal(b1-4)GlcNAc(b1-6)]GalNAc
# Outline: as §1
# [5] = target: Fuc(a1-2)[Gal(a1-3)]Gal(b1-4)GlcNAc(b1-6)GalNAc
# Outline: as §1
# [6] = target: Fuc(a1-2)[Gal(a1-3)]Gal(b1-4)[Fuc(a1-3)]Glc
# Outline: as §1
# [7] = target: Fuc(a1-2)[Gal(a1-3)]Gal(b1-4)[Fuc(a1-3)]GlcNAc
# Outline: as §1
# [8] = target: Fuc(a1-2)[Gal(a1-3)]Gal(b1-4)[Fuc(a1-3)]GlcNAc(b1-3)GalNAc
# Outline: as §1
# [9] = target: Fuc(a1-2)[Gal(a1-4)]Gal(b1-4)GlcNAc
# Outline: as §1
# [10] = target: Fuc(a1-2)[GalNAc(a1-3)]Gal
# Outline: as §1
# [11] = target: Fuc(a1-2)[GalNAc(a1-3)]Gal(b1-3)GalNAc(a1-3)[Fuc(a1-2)]Gal(b1-4)GlcNAc
# Outline: as §1
# [12] = target: Fuc(a1-2)[GalNAc(a1-3)]Gal(b1-3)GalNAc(b1-3)Gal(a1-4)Gal(b1-4)Glc
# Outline: as §1
# [13] = target: Fuc(a1-2)[GalNAc(a1-3)]Gal(b1-3)GlcNAc
# Outline: as §1
# [14] = target: Fuc(a1-2)[GalNAc(a1-3)]Gal(b1-3)GlcNAc(b1-2)Man(a1-3)[Fuc(a1-2)[GalNAc(a1-3)]Gal(b1-3)GlcNAc(b1-2)Man(a1-6)]Man(b1-4)GlcNAc(b1-4)GlcNAc
# Outline: as §1
# [15] = target: Fuc(a1-2)[GalNAc(a1-3)]Gal(b1-3)GlcNAc(b1-2)Man(a1-3)[Fuc(a1-2)[GalNAc(a1-3)]Gal(b1-3)GlcNAc(b1-2)Man(a1-6)]Man(b1-4)GlcNAc(b1-4)[Fuc(a1-6)]GlcNAc
# Outline: as §1
# [16] = target: Fuc(a1-2)[GalNAc(a1-3)]Gal(b1-3)GlcNAc(b1-3)GalNAc
# Outline: as §1
# [17] = target: Fuc(a1-2)[GalNAc(a1-3)]Gal(b1-3)GlcNAc(b1-6)GalNAc
# Outline: as §1
# [18] = target: Fuc(a1-2)[GalNAc(a1-3)]Gal(b1-4)Glc
# Outline: as §1
# [19] = target: Fuc(a1-2)[GalNAc(a1-3)]Gal(b1-4)GlcNAc
# Outline: as §1
# [20] = target: Fuc(a1-2)[GalNAc(a1-3)]Gal(b1-4)GlcNAc(b1-2)Man
# Outline: as §1
# [21] = target: Fuc(a1-2)[GalNAc(a1-3)]Gal(b1-4)GlcNAc(b1-2)Man(a1-3)[Fuc(a1-2)[GalNAc(a1-3)]Gal(b1-4)GlcNAc(b1-2)Man(a1-6)]Man(b1-4)GlcNAc(b1-4)GlcNAc
# Outline: as §1
# [22] = target: Fuc(a1-2)[GalNAc(a1-3)]Gal(b1-4)GlcNAc(b1-2)Man(a1-3)[Fuc(a1-2)[GalNAc(a1-3)]Gal(b1-4)GlcNAc(b1-2)Man(a1-6)]Man(b1-4)GlcNAc(b1-4)[Fuc(a1-6)]GlcNAc
# Outline: as §1
# [23] = target: Fuc(a1-2)[GalNAc(a1-3)]Gal(b1-4)GlcNAc(b1-3)Gal(b1-4)GlcNAc
# Outline: as §1
# [24] = target: Fuc(a1-2)[GalNAc(a1-3)]Gal(b1-4)GlcNAc(b1-3)Gal(b1-4)GlcNAc(b1-3)Gal(b1-4)GlcNAc
# Outline: as §1
# [25] = target: Fuc(a1-2)[GalNAc(a1-3)]Gal(b1-4)GlcNAc(b1-3)GalNAc
# Outline: as §1
# [26] = target: Fuc(a1-2)[GalNAc(a1-3)]Gal(b1-4)GlcNAc(b1-3)[Fuc(a1-2)[GalNAc(a1-3)]Gal(b1-4)GlcNAc(b1-6)]GalNAc
# Outline: as §1
# [27] = target: Fuc(a1-2)[GalNAc(a1-3)]Gal(b1-4)GlcNAc(b1-6)GalNAc
# Outline: as §1
# [28] = target: Fuc(a1-2)[GalNAc(a1-3)]Gal(b1-4)[Fuc(a1-3)]GlcNAc
# Outline: as §1
# [29] = target: Fuc(a1-2)[GalNAc(a1-3)]Gal(b1-4)[Fuc(a1-3)]GlcNAc(b1-3)GalNAc
# Outline: as §1
# [30] = target: Fuc(a1-2)[GalNAc(a1-4)]Gal(b1-4)GlcNAc
# Outline: as §1
binder,measurement,setting,value
B1,glycan array binding signal (z-score),[1],-0.732
same,glycan array binding signal (z-score),[2],-0.432
same,glycan array binding signal (z-score),[3],-0.942
same,glycan array binding signal (z-score),[4],1.17
same,glycan array binding signal (z-score),[5],0.366
same,glycan array binding signal (z-score),[6],-0.56
same,glycan array binding signal (z-score),[7],0.294
same,glycan array binding signal (z-score),[8],-0.606
same,glycan array binding signal (z-score),[9],0.493
same,glycan array binding signal (z-score),[10],-0.479
same,glycan array binding signal (z-score),[11],-0.153
same,glycan array binding signal (z-score),[12],-0.252
same,glycan array binding signal (z-score),[13],-0.076
same,glycan array binding signal (z-score),[14],-0.78
same,glycan array binding signal (z-score),[15],-0.638
same,glycan array binding signal (z-score),[16],0.267
same,glycan array binding signal (z-score),[17],-0.678
same,glycan array binding signal (z-score),[18],-0.646
same,glycan array binding signal (z-score),[19],-0.115
same,glycan array binding signal (z-score),[20],-1.24
same,glycan array binding signal (z-score),[21],0.144
same,glycan array binding signal (z-score),[22],-0.26
same,glycan array binding signal (z-score),[23],-0.172
same,glycan array binding signal (z-score),[24],1.9
same,glycan array binding signal (z-score),[25],-0.64
same,glycan array binding signal (z-score),[26],-0.154
same,glycan array binding signal (z-score),[27],-1.01
same,glycan array binding signal (z-score),[28],-0.129
same,glycan array binding signal (z-score),[29],4.26
same,glycan array binding signal (z-score),[30],-0.721

# Shown as tab-separated lines: part of the list above.
binder	measurement	setting	value
B1	glycan array binding signal (z-score)	[14]	-0.78
same	glycan array binding signal (z-score)	[15]	-0.638
